Reference: the supplement of paper PMC12823440, “Inhibitors supercharge kinase turnover through native proteolytic circuits” (Nature, 2025)
Structures can show the parent of a compound that is named as a salt. This is one part of the list. Hit calls seldom repeat between salt and free forms of one compound.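 Kinases, fused to nanoluciferase, were expressed in K562 cells; luminescence was measured every 4 h from 2 to 18 h as percent of control (DMSO = 100%, positive control = 0%). A time point is decreased if signal falls significantly (2 sigma). Hits were called by the authors by a rule that is not shown; the count of time points alone does not decide it.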

Protein sequences, listed by entry. Tags and fused reporters are not part of them. Lines headed by an entry give the natural chain unless they say otherwise; changes in a name come on top.
UniProt Q9Y616: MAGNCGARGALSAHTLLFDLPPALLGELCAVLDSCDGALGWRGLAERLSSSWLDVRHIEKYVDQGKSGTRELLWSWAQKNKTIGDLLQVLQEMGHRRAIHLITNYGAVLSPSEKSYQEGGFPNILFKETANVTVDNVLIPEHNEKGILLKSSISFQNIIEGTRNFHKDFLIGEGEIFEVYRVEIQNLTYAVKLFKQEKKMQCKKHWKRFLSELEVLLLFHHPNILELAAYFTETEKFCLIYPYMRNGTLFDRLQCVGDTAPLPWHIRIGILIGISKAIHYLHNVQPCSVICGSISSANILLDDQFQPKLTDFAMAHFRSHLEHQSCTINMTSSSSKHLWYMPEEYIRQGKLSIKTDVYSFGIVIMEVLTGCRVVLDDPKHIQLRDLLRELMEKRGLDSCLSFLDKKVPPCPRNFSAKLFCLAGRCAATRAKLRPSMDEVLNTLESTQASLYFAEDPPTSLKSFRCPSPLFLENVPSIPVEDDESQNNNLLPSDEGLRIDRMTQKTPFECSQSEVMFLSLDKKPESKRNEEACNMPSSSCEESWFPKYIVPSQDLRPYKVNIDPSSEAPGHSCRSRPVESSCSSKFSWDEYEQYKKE
UniProt P23458: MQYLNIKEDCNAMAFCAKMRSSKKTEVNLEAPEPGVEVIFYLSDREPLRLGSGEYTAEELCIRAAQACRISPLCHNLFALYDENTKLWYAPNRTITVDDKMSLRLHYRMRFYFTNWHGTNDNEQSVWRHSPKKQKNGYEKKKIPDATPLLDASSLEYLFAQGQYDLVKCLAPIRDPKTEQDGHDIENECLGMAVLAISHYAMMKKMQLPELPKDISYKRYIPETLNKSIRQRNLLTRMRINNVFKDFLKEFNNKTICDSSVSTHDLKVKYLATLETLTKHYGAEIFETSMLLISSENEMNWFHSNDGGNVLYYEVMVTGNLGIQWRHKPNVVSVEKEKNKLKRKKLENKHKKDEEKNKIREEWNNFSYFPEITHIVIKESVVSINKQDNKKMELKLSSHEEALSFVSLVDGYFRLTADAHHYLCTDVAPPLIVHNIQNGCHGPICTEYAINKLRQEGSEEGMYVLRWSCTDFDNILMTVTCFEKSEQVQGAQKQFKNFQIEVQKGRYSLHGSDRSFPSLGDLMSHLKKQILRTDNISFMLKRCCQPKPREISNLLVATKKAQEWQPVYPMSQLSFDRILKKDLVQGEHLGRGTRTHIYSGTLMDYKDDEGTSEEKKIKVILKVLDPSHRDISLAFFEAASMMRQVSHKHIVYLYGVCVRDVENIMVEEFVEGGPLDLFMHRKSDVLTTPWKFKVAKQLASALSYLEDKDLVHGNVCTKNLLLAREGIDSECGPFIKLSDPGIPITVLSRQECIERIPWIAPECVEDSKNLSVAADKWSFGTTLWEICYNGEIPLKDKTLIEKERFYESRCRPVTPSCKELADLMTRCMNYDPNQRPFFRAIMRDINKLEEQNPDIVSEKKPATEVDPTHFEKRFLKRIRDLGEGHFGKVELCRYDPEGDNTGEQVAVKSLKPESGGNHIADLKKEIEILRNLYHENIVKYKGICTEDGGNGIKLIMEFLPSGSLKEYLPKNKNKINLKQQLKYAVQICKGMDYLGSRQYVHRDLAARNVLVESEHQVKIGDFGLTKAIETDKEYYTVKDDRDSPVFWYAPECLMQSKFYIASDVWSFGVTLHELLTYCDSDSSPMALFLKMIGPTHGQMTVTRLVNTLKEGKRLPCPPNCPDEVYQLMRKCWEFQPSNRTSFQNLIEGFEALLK
UniProt P06239: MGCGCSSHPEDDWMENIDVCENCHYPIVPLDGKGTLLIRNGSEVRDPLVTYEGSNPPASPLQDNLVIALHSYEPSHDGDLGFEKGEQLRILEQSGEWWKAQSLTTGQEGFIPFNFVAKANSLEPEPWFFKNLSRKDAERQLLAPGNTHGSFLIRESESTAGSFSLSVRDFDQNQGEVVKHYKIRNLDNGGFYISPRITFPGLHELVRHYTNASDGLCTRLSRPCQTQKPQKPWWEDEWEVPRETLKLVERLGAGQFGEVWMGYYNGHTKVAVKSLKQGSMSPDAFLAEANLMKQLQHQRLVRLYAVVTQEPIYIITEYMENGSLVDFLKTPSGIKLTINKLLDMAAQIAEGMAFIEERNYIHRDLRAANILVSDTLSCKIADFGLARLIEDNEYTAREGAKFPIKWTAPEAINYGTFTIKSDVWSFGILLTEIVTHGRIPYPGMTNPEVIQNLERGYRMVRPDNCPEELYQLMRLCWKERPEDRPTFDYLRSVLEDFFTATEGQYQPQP
UniProt P53667: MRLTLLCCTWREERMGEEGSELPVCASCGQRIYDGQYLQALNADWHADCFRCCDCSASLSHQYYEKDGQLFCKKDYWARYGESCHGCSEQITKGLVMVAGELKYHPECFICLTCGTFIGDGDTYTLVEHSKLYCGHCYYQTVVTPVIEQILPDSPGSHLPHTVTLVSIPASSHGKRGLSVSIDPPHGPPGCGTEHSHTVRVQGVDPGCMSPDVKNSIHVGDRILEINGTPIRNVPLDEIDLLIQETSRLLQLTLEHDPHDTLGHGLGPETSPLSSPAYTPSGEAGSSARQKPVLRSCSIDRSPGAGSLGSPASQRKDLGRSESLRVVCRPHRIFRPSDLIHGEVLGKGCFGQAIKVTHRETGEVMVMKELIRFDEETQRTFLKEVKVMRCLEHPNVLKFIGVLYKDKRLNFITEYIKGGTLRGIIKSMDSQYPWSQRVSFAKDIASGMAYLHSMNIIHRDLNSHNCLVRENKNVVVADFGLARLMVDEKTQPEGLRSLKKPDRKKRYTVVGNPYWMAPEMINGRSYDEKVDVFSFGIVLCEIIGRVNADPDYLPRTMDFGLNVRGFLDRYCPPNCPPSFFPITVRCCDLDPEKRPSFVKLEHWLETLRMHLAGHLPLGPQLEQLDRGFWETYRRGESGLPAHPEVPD
UniProt P53671: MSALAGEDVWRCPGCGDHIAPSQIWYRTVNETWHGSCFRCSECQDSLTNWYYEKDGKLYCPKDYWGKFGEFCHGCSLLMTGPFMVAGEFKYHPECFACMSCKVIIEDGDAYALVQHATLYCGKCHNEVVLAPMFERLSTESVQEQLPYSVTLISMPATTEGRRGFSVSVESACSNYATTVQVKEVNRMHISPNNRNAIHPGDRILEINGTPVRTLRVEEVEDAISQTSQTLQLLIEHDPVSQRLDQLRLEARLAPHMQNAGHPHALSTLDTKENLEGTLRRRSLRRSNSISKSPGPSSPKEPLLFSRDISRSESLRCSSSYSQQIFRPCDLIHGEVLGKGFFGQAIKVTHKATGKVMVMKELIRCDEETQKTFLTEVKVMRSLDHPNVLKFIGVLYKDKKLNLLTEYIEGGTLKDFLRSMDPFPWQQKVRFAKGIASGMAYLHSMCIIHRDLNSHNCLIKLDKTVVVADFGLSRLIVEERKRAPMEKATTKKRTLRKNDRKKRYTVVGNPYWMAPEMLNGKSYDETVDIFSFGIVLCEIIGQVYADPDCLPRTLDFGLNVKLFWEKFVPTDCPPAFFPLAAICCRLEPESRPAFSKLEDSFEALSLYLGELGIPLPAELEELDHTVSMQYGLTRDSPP
UniProt Q8IWU2: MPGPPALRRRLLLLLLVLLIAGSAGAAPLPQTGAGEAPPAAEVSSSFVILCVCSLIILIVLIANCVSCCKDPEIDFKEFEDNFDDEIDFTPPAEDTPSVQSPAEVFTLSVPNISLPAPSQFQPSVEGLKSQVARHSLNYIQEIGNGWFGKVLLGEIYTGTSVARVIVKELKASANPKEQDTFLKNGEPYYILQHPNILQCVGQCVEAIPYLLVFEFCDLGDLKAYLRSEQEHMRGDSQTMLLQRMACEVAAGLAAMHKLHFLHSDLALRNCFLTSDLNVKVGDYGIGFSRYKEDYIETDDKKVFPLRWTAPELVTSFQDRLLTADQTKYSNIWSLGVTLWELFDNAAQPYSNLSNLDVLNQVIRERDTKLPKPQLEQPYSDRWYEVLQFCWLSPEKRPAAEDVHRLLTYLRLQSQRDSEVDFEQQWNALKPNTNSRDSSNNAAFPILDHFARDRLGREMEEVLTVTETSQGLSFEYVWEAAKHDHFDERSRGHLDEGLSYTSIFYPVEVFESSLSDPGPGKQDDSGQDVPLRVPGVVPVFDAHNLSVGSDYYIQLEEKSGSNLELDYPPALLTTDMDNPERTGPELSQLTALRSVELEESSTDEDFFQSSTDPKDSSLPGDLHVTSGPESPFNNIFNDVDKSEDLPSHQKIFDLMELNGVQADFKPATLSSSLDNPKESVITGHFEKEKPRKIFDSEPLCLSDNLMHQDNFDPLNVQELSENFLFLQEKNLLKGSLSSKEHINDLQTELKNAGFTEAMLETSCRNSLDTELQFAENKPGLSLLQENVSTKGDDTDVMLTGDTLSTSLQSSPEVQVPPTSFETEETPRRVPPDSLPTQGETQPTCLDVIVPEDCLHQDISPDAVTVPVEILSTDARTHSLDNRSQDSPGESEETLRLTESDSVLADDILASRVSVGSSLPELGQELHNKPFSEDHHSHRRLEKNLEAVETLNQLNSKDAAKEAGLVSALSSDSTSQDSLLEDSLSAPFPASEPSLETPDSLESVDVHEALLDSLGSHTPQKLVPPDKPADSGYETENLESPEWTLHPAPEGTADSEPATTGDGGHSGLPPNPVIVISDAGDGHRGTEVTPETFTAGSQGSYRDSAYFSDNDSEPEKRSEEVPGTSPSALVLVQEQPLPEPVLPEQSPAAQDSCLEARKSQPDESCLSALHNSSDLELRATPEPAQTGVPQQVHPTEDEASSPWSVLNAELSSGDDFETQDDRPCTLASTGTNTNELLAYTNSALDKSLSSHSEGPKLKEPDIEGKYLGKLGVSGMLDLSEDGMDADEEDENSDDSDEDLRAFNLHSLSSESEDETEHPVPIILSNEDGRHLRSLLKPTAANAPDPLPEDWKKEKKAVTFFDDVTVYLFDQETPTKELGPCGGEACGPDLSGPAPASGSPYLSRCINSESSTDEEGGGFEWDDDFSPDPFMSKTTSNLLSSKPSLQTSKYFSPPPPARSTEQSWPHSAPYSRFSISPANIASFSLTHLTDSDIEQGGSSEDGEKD
UniProt P07948: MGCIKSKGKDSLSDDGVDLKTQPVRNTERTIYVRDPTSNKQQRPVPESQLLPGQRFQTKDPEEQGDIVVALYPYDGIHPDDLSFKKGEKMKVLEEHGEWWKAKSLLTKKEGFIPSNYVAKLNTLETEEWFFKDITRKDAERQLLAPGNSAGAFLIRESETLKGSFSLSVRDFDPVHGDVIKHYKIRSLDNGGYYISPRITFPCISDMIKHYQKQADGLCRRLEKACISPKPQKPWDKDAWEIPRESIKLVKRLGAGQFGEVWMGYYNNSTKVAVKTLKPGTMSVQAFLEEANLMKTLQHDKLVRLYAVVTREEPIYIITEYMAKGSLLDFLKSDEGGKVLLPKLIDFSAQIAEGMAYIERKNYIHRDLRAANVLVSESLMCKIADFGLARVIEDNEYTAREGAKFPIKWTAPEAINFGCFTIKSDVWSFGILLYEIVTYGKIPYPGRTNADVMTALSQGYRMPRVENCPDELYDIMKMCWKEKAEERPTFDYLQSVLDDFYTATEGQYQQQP
UniProt Q12851: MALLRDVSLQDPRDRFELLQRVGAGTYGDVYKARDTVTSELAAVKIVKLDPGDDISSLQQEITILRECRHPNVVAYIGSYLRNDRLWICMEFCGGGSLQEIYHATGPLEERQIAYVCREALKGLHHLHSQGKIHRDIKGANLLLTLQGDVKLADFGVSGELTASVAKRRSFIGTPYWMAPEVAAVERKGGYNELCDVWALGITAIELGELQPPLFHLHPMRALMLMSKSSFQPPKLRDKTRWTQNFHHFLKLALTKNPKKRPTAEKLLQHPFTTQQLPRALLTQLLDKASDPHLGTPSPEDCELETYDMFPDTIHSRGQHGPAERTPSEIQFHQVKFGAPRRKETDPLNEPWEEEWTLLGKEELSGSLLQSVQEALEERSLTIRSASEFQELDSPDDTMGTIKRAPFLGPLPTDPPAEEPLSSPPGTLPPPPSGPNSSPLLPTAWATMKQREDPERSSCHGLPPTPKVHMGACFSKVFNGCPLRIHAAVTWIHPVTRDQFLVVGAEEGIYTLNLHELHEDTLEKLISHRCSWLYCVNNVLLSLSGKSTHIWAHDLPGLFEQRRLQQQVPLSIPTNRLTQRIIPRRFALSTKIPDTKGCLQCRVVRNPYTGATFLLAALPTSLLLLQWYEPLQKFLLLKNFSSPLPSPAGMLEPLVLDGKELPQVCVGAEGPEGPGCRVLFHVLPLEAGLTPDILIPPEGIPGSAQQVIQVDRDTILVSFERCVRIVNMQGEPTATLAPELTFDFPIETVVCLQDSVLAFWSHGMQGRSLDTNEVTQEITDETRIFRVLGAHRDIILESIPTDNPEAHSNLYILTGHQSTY

Assays:
Test in all cases: kinase-Nluc reporter destabilization hit call (1 = scored as downregulated) (binary); higher = compound decreases kinase abundance
Settings in all cases: K562; 2-18 h
IRAK3 = IRAK3 (UniProt Q9Y616)
JAK1 = JAK1 (UniProt P23458)
LCK = LCK (UniProt P06239)
LIMK1 = LIMK1 (UniProt P53667)
LIMK2 = LIMK2 (UniProt P53671)
LMTK2 = LMTK2 (UniProt Q8IWU2)
LYN = LYN (UniProt P07948)
MAP2K1 = MAP2K1 (UniProt Q02750)
MAP2K2 = MAP2K2 (UniProt P36507)
MAP4K2 = MAP4K2 (UniProt Q12851)

Measured: kinase-Nluc reporter destabilization hit call

N#CC(c1ccnc(OCc2ccc(CN3CCOCC3)cc2)n1)c1nc2ccccc2s1 (stereo not given) [Bentamapimod] (2.5 µM)
inactive: IRAK3 = 0 | JAK1 = 0 | LCK 0 | LIMK1 = 0 | LIMK2 = 0 | LMTK2 = 0 | LYN 0 | MAP2K1 = 0 | MAP2K2 = 0 | MAP4K2 = 0

CCN(CC)CCC(=O)N1N=C(c2c(-c3ccccc3)c3cc(Br)ccc3[nH]c2=O)CC1c1ccc(Br)cc1 (stereo not given) (2.5 µM)
inactive: IRAK3 = 0 | JAK1 = 0 | LCK 0 | LIMK1 = 0 | LIMK2 = 0 | LMTK2 = 0 | LYN 0 | MAP2K1 = 0 | MAP2K2 = 0 | MAP4K2 = 0

O=C1NC(=O)/C(=C/c2ccc3nccc(-c4ccncc4)c3c2)S1 (10 µM)
inactive: IRAK3 = 0 | JAK1 = 0 | LCK 0 | LIMK1 = 0 | LIMK2 = 0 | LMTK2 = 0 | LYN 0 | MAP2K1 = 0 | MAP2K2 = 0 | MAP4K2 = 0

CN(C)CCC=C1c2ccccc2CCc2ccccc21 [Amitriptyline (hydrochloride)] (2.5 µM)
inactive: IRAK3 = 0 | JAK1 = 0 | LCK 0 | LIMK1 = 0 | LIMK2 = 0 | LMTK2 = 0 | LYN 0 | MAP2K1 = 0 | MAP2K2 = 0 | MAP4K2 = 0

O=C(O)c1cc(=O)c2c(OCC(O)COc3cccc4oc(C(=O)O)cc(=O)c34)cccc2o1 [Cromolyn (sodium)] (10 µM)
inactive: IRAK3 = 0 | JAK1 = 0 | LCK 0 | LIMK1 = 0 | LIMK2 = 0 | LMTK2 = 0 | LYN 0 | MAP2K1 = 0 | MAP2K2 = 0 | MAP4K2 = 0

Oc1ccc(/C=C/c2cc(O)cc(F)c2)cc1 [Resveratrol analog 1] (10 µM)
inactive: IRAK3 = 0 | JAK1 = 0 | LCK 0 | LIMK1 = 0 | LIMK2 = 0 | LMTK2 = 0 | LYN 0 | MAP2K1 = 0 | MAP2K2 = 0 | MAP4K2 = 0

N#Cc1ccnc(Nc2cc(C3CCN(C4COC4)CC3)cc(N3CCC(F)(F)C3)n2)c1 (2.5 µM)
inactive: IRAK3 = 0 | JAK1 = 0 | LCK 0 | LIMK1 = 0 | LIMK2 = 0 | LMTK2 = 0 | LYN 0 | MAP2K1 = 0 | MAP2K2 = 0 | MAP4K2 = 0

Cc1cccc2c3c(ccc12)C(=O)C1=C(OCC1C)C3=O (stereo not given) [Dihydroisotanshinone I] (2.5 µM)
inactive: IRAK3 = 0 | JAK1 = 0 | LCK 0 | LIMK1 = 0 | LIMK2 = 0 | LMTK2 = 0 | LYN 0 | MAP2K1 = 0 | MAP2K2 = 0 | MAP4K2 = 0

CN(c1ccc(NC(=O)Nc2ccc(OC(F)(F)F)cc2)cc1)c1ccnc(Nc2cccc(S(N)(=O)=O)c2)n1 (2.5 µM)
inactive: IRAK3 = 0 | JAK1 = 0 | LCK 0 | LIMK1 = 0 | LIMK2 = 0 | LMTK2 = 0 | LYN 0 | MAP2K1 = 0 | MAP2K2 = 0 | MAP4K2 = 0

CCc1cncnc1N1CCN(Cc2nc3ccc(C(F)(F)F)cc3[nH]2)CC1 (10 µM)
inactive: IRAK3 = 0 | JAK1 = 0 | LCK 0 | LIMK1 = 0 | LIMK2 = 0 | LMTK2 = 0 | LYN 0 | MAP2K1 = 0 | MAP2K2 = 0 | MAP4K2 = 0

NC(=S)n1[nH]c(-c2ccc([N+](=O)[O-])cc2)c(N=Nc2cccc(Cl)c2)c1=O (2.5 µM)
inactive: IRAK3 = 0 | JAK1 = 0 | LCK 0 | LIMK1 = 0 | LIMK2 = 0 | LMTK2 = 0 | LYN 0 | MAP2K1 = 0 | MAP2K2 = 0 | MAP4K2 = 0

C=CC(=O)N1C(=O)CC(c2ccc(F)cc2)Sc2ccccc21 (stereo not drawn) [GSK-3β inhibitor 3] (10 µM)
inactive: IRAK3 = 0 | JAK1 = 0 | LCK 0 | LIMK1 = 0 | LIMK2 = 0 | LMTK2 = 0 | LYN 0 | MAP2K1 = 0 | MAP2K2 = 0 | MAP4K2 = 0

O=c1[nH]c(C2CCCN2)nc2c1oc1ccc(Cl)cc12 (stereo not given) [XL413 (hydrochloride)] (10 µM)
inactive: IRAK3 = 0 | JAK1 = 0 | LCK 0 | LIMK1 = 0 | LIMK2 = 0 | LMTK2 = 0 | LYN 0 | MAP2K1 = 0 | MAP2K2 = 0 | MAP4K2 = 0

C[C@@H]1COCCN1c1nc(-c2cnc(N)cc2C(F)F)nc(N2[C@H](C)COC[C@@H]2C)n1 (2.5 µM)
inactive: IRAK3 = 0 | JAK1 = 0 | LCK 0 | LIMK1 = 0 | LIMK2 = 0 | LMTK2 = 0 | LYN 0 | MAP2K1 = 0 | MAP2K2 = 0 | MAP4K2 = 0

CN(C)c1nc2c(Br)c(Br)c(Br)c(Br)c2[nH]1 (10 µM)
inactive: IRAK3 = 0 | JAK1 = 0 | LCK 0 | LIMK1 = 0 | LIMK2 = 0 | LMTK2 = 0 | LYN 0 | MAP2K1 = 0 | MAP2K2 = 0 | MAP4K2 = 0

COc1ccc2cc(-c3nc(-c4ccc([S+](C)[O-])cc4)[nH]c3-c3ccncc3)ccc2c1 (stereo not given) [Tie2 kinase inhibitor 1] (2.5 µM)
inactive: IRAK3 = 0 | JAK1 = 0 | LCK 0 | LIMK1 = 0 | LIMK2 = 0 | LMTK2 = 0 | LYN 0 | MAP2K1 = 0 | MAP2K2 = 0 | MAP4K2 = 0

CCCNC(=O)Nc1ccc(Oc2ncnc3cc(OC)c(OC)cc23)cc1Cl (2.5 µM)
inactive: IRAK3 = 0 | JAK1 = 0 | LCK 0 | LIMK1 = 0 | LIMK2 = 0 | LMTK2 = 0 | LYN 0 | MAP2K1 = 0 | MAP2K2 = 0 | MAP4K2 = 0

Cc1ccc(-c2csc3ncnc(SCCC(=O)O)c23)cc1 (10 µM)
inactive: IRAK3 = 0 | JAK1 = 0 | LCK 0 | LIMK1 = 0 | LIMK2 = 0 | LMTK2 = 0 | LYN 0 | MAP2K1 = 0 | MAP2K2 = 0 | MAP4K2 = 0

Cn1cc(C2=C(c3cn(CCCSC(=N)N)c4ccccc34)C(=O)NC2=O)c2ccccc21 [Ro 31-8220 (mesylate)] (2.5 µM)
inactive: IRAK3 = 0 | JAK1 = 0 | LCK 0 | LIMK1 = 0 | LIMK2 = 0 | LMTK2 = 0 | LYN 0 | MAP2K1 = 0 | MAP2K2 = 0 | MAP4K2 = 0

Cn1ncc2cc(-c3cnc(N)c(Cl)c3N3CCC4(CCNC4=O)CC3)ccc21 (10 µM)
inactive: IRAK3 = 0 | JAK1 = 0 | LCK 0 | LIMK1 = 0 | LIMK2 = 0 | LMTK2 = 0 | LYN 0 | MAP2K1 = 0 | MAP2K2 = 0 | MAP4K2 = 0

C=CC(=O)Nc1cccc(-c2cccc3cnc(Nc4ccc(N5CCN(CCO)CC5)c(F)c4F)nc23)c1 [Olafertinib] (2.5 µM)
inactive: IRAK3 = 0 | JAK1 = 0 | LCK 0 | LIMK1 = 0 | LIMK2 = 0 | LMTK2 = 0 | LYN 0 | MAP2K1 = 0 | MAP2K2 = 0 | MAP4K2 = 0

Nc1cccc(-c2cc3c(Oc4cccc(O)c4)ncnc3[nH]2)c1 (10 µM)
inactive: IRAK3 = 0 | JAK1 = 0 | LCK 0 | LIMK1 = 0 | LIMK2 = 0 | LMTK2 = 0 | LYN 0 | MAP2K1 = 0 | MAP2K2 = 0 | MAP4K2 = 0

FC(F)(F)c1ccc(/C=C/c2nc(COc3ccc(CCCCn4ccnn4)cc3)co2)cc1 [Mubritinib] (10 µM)
inactive: IRAK3 = 0 | JAK1 = 0 | LCK 0 | LIMK1 = 0 | LIMK2 = 0 | LMTK2 = 0 | LYN 0 | MAP2K1 = 0 | MAP2K2 = 0 | MAP4K2 = 0

Cc1ncc(NC(=O)NC2c3ccccc3-c3ccccc32)c(-c2ccccc2)n1 (10 µM)
inactive: IRAK3 = 0 | JAK1 = 0 | LCK 0 | LIMK1 = 0 | LIMK2 = 0 | LMTK2 = 0 | LYN 0 | MAP2K1 = 0 | MAP2K2 = 0 | MAP4K2 = 0

COc1ccccc1C(=O)/C=C/c1ccccc1C(=O)O (10 µM)
inactive: IRAK3 = 0 | JAK1 = 0 | LCK 0 | LIMK1 = 0 | LIMK2 = 0 | LMTK2 = 0 | LYN 0 | MAP2K1 = 0 | MAP2K2 = 0 | MAP4K2 = 0

2 records drawn at random from the list so far, as already listed:
N#Cc1ccnc(Nc2cc(C3CCN(C4COC4)CC3)cc(N3CCC(F)(F)C3)n2)c1 (2.5 µM)
inactive: IRAK3 = 0 | JAK1 = 0 | LCK 0 | LIMK1 = 0 | LIMK2 = 0 | LMTK2 = 0 | LYN 0 | MAP2K1 = 0 | MAP2K2 = 0 | MAP4K2 = 0

NC(=S)n1[nH]c(-c2ccc([N+](=O)[O-])cc2)c(N=Nc2cccc(Cl)c2)c1=O (2.5 µM)
inactive: IRAK3 = 0 | JAK1 = 0 | LCK 0 | LIMK1 = 0 | LIMK2 = 0 | LMTK2 = 0 | LYN 0 | MAP2K1 = 0 | MAP2K2 = 0 | MAP4K2 = 0

Next structures follow.

O=[N+]([O-])c1ccc(Nc2nc(N3CCOCC3)nc(N3CCOCC3)n2)cc1 (10 µM)
inactive: IRAK3 = 0 | JAK1 = 0 | LCK 0 | LIMK1 = 0 | LIMK2 = 0 | LMTK2 = 0 | LYN 0 | MAP2K1 = 0 | MAP2K2 = 0 | MAP4K2 = 0

CN1CCC(c2ccccc2CC(C)(C)Nc2nc(N3CCOCC3)nc(-n3c(C(F)F)nc4ccccc43)n2)CC1 [Zandelisib] (10 µM)
inactive: IRAK3 = 0 | JAK1 = 0 | LCK 0 | LIMK1 = 0 | LIMK2 = 0 | LMTK2 = 0 | LYN 0 | MAP2K1 = 0 | MAP2K2 = 0 | MAP4K2 = 0

C[C@H](NC(=O)[C@H]1NCC[C@@H]1O)c1ccc(-c2noc(CCC3CCCC3)n2)cc1 (10 µM)
inactive: IRAK3 = 0 | JAK1 = 0 | LCK 0 | LIMK1 = 0 | LIMK2 = 0 | LMTK2 = 0 | LYN 0 | MAP2K1 = 0 | MAP2K2 = 0 | MAP4K2 = 0

COc1cc2ncnc(Nc3ccccc3)c2cc1OC (10 µM)
inactive: IRAK3 = 0 | JAK1 = 0 | LCK 0 | LIMK1 = 0 | LIMK2 = 0 | LMTK2 = 0 | LYN 0 | MAP2K1 = 0 | MAP2K2 = 0 | MAP4K2 = 0

N#Cc1c2nc3ccccc3nc2n2ccc(NC(=O)c3cccs3)cc12 (10 µM)
inactive: IRAK3 = 0 | JAK1 = 0 | LCK 0 | LIMK1 = 0 | LIMK2 = 0 | LMTK2 = 0 | LYN 0 | MAP2K1 = 0 | MAP2K2 = 0 | MAP4K2 = 0
